# Reference: publication PMC10510397 (Journal of Medicinal Chemistry, 2023)
# Numbered stars: 1 amine (or outer) side, 2 acyl side, 3 side chain; on linkers, the order of the positions; unused ones are H or OH. Bridge positions count the residues as written; N and C are the ends. Square brackets hold non-standard residues; d marks the D form. CH2COCH2 = O=C(C[*:1])C[*:2]; CH2 = C([*:1])[*:2]; Mpa = O=C(O)CCS
# Experiment: general procedure: Fmoc solid-phase peptide synthesis; rink amide or 2-chlorotrityl chloride resin; HCTU/DIPEA; HATU/DIPEA for N-terminal 3-(tritylthio)propanoic acid
# Conditions: cyclisation step, 214 nm
row,Substance,final HPLC purity [%]
1,[Mpa]YGGFLRRCRPKLK-OH (linker 1-9 via CH2COCH2; SMILES CC(C)C[C@H](NC(=O)[C@H](CCCCN)NC(=O)[C@@H]1CCCN1C(=O)[C@H](CCCNC(=N)N)NC(=O)[C@@H]1CSCC(=O)CSCCC(=O)N[C@@H](Cc2ccc(O)cc2)C(=O)NCC(=O)NCC(=O)N[C@@H](Cc2ccccc2)C(=O)N[C@@H](CC(C)C)C(=O)N[C@@H](CCCNC(=N)N)C(=O)N[C@@H](CCCNC(=N)N)C(=O)N1)C(=O)N[C@@H](CCCCN)C(=O)O),98.5
2,[Mpa]YGGFLRRCRPKLK-NH2 (linker 1-9 via CH2),97.3
3,[Mpa]YGGFLRRCRPKLK-OH (linker 1-9 via CH2; SMILES CC(C)C[C@H](NC(=O)[C@H](CCCCN)NC(=O)[C@@H]1CCCN1C(=O)[C@H](CCCNC(=N)N)NC(=O)[C@@H]1CSCSCCC(=O)N[C@@H](Cc2ccc(O)cc2)C(=O)NCC(=O)NCC(=O)N[C@@H](Cc2ccccc2)C(=O)N[C@@H](CC(C)C)C(=O)N[C@@H](CCCNC(=N)N)C(=O)N[C@@H](CCCNC(=N)N)C(=O)N1)C(=O)N[C@@H](CCCCN)C(=O)O),97.8
4,[Mpa]YGGFLRRCRPKLK-NH2 (linker 1-9 via CH2COCH2; SMILES CC(C)C[C@H](NC(=O)[C@H](CCCCN)NC(=O)[C@@H]1CCCN1C(=O)[C@H](CCCNC(=N)N)NC(=O)[C@@H]1CSCC(=O)CSCCC(=O)N[C@@H](Cc2ccc(O)cc2)C(=O)NCC(=O)NCC(=O)N[C@@H](Cc2ccccc2)C(=O)N[C@@H](CC(C)C)C(=O)N[C@@H](CCCNC(=N)N)C(=O)N[C@@H](CCCNC(=N)N)C(=O)N1)C(=O)N[C@@H](CCCCN)C(N)=O),96.3
